In PubChem BioAssay AID2417 (National Center for Advancing Translational Sciences (NCATS), 2010):
Screen size: about 140,000 compounds; about 4,300 (3.1%) were called active. Inconclusive means that the source gave no clear call. Such entries were picked first, then a sample of the others.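 Rule for the calls: active = readout at or below -70, meaning at least 70% loss of cells showing the perinucleolar compartment, a nuclear body marking cancer cells; inconclusive = readout between -30 and a set limit; inactive = the rest.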

Assay: High Content Assay for Compounds that inhibit the Assembly of the Perinucleolar Compartment;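 note: plate controls were DMSO wells for no effect and camptothecin positive control wells for full effect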
Conditions: PC3M PTB-GFP, PNC prevalence imaging, 16 h; at 10 µM; active compounds read low
Summary of the method: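 PC3M cells stably expressing PTB-GFP, 750–1000 cells/well, treated 16 h at 37 °C with compound (23 nl of library stock), in duplicate. After paraformaldehyde fixation and Hoechst stain, imaged at 20x; PNC prevalence scored by image analysis.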

SMILES | activity change (PNC), negative = inhibition
COc1ccc(Cl)cc1NC(=O)COC(=O)c1cc(NS(=O)(=O)c2cccs2)ccc1O | inactive: 80%
COC1=C(Nc2ccccc2)C(=O)c2ccccc2C1=O | inconclusive: -49.8%
CCOC(=O)C1(C)/C(=N/Nc2ccc(Cl)cc2)C(=O)C(=O)N1c1ccccc1 (configuration not stated) | inconclusive: -42.2%
COc1ccccc1CC(=O)Nc1ccc([N+](=O)[O-])cc1OC | inconclusive: -66.8%
Cc1ccc(CNC(=O)CO/N=C/c2ccc(C(C)(C)C)cc2)cc1 | inconclusive: -42.9%
Cc1nn(CC(=O)N/N=C/c2ccc3c(c2)OCO3)c(C)c1Br | inconclusive: -41.6%
CC1(C)C(c2ccccc2)=[N+]([O-])CN1O | inactive: 2.24%
COc1ccc(OC)c(N(CC(=O)Nc2ccc3c(c2)OCO3)S(=O)(=O)c2ccccc2)c1 | inactive: 7.59%
CCOC(=O)c1ccc2ncc(C(=O)OCC)c(Nc3ccc(N4CCOCC4)cc3)c2c1 | inconclusive: -46%
Cc1cc(C)cc(NC(=O)CSc2ccc(-c3cccs3)nn2)c1 | inconclusive: -48.1%
CC1CCN(CCCn2c(=S)[nH]c3ccccc3c2=O)CC1 | inconclusive: -32.6%
COc1ccc(Cl)cc1NC(=O)COC(=O)CCNC(C)=O | inconclusive: -77.2%
CCOC(=O)C1=C(c2ccccc2)NC(=O)NC1c1ccc(N(C)C)cc1 (configuration not stated) | active: -100%
S=c1[nH]nc(Cc2cccc3ccccc23)o1 | inconclusive: -66.2%
Cc1nc(CNS(=O)(=O)c2ccc(Oc3ccccc3)cc2)cs1 | active: -83.2%
Cc1ccc(/C=N/NC(=O)C(C)Oc2ccccc2[N+](=O)[O-])s1 (configuration not stated) | inconclusive: -56.8%
CC(C)(C)OC(=O)N1CC=C2C(C#N)=C(N)C(C#N)(C#N)[C@H](c3cccnc3)[C@H]2C1 | inconclusive: -36.8%
Cc1oc(C(C)(C)C)cc1C(=O)NCC(=O)NCC(=O)O | inconclusive: -45.3%
O=C(O)CCC(=O)NNC(=O)CCCOc1ccc(Cl)cc1Cl | inconclusive: -32.1%
CCOc1ccc(N2CC(C(=O)Nc3cccc(C)c3C)CC2=O)cc1 (configuration not stated) | inconclusive: -49.9%
Cc1ccccc1NC(=O)Cn1cnc2c(oc3nc4c(cc32)COC(C)(C)C4)c1=O | inactive: 21.1%
O=C(OCn1nnc2ccccc2c1=O)C1COc2ccccc2O1 (configuration not stated) | inconclusive: -41.5%
Cc1ccc(N(CCC#N)C(=O)CCl)cc1C | inconclusive: -50.8%

SMILES | activity change (PNC), negative = inhibition
OCCN(CC(O)Cn1ccc2ccccc21)CC(O)Cn1ccc2ccccc21 (configuration not stated) | inactive: -12.5%
COc1ccc(NC(=O)CN2CCN(c3ccccc3Cl)CC2)cc1 | active: -100%
Cc1nnc(SCC(=O)N2CCN(Cc3ccccc3)CC2)s1 | inactive: 12.6%
Cc1ccc(/C=C/C(=O)NCc2ccc3c(c2)OCO3)o1 | inactive: -18.8%
Cc1ccc(C(C)n2cc(C(=O)NCc3cccnc3)nn2)cc1 (configuration not stated) | inactive: 19.2%
CC(OC(=O)C1CCCO1)C(=O)NC1CCCC1 (configuration not stated) | inconclusive: -55.1%
CC(=O)c1c(C)n(-c2ccccc2)c2ccc(OCC(O)CN3CCOCC3)cc12 (configuration not stated) | inconclusive: -48.6%
O=C(CSc1ncccn1)NCc1ccccc1 | inconclusive: -73.4%
Cc1cc(C)nc(SC(C)C(=O)Nc2ccc(S(N)(=O)=O)cc2)n1 (configuration not stated) | inconclusive: -46.4%
O=C1NC(c2ccccc2)=C(c2ccc3ccccc3n2)C(c2ccncc2)N1 (configuration not stated) | inconclusive: -31.5%
O=C(Nc1ccon1)c1ccc2c(c1)OCO2 | inconclusive: -30.8%
O=C(Nc1cc(S(=O)(=O)N2CCOCC2)ccc1O)c1ccc(NS(=O)(=O)c2ccc(Cl)s2)cc1 | active: -134%
CCCOc1ccc(CN(CCO)CCO)cc1C(=O)OC | inconclusive: -49.6%
O=C(Nc1nnc(-c2ccccc2Cl)o1)c1nc2ccccc2s1 | inconclusive: -31.5%
Cc1ccc(S(=O)(=O)Cc2ccc(C(=O)N3CCCCCC3)o2)cc1 | inactive: -7.5%
Fc1ccccc1CSc1ncnc2c1oc1ccccc12 | inconclusive: -32.1%
Cc1cc(C)c(-c2c(O)c3cccc4c3n(c2=O)CCC4)c(C)c1 | active: -100%
CCn1nnc(NC(=O)c2ccc(C(C)(C)C)cc2)n1 | inactive: 27.3%
CCC(C)(C)n1nnnc1C(c1ccc2ncccc2c1)N1CCN(c2nc3ccccc3s2)CC1 (configuration not stated) | active: -85.9%
CC(=O)Nc1ccc(NC(=O)c2cccc(C(=O)OC(C)C)n2)cc1 | inconclusive: -44.9%
O=C(O)CSc1nc(-c2ccc(Cl)cc2)nc2c1oc1ccccc12 | active: -86.9%
CC(C)C(=O)Nc1ccc([N+](=O)[O-])cc1Br | inactive: 17.6%
Cc1ccccc1-n1c(SCC(=O)NC(N)=O)nc2sc(-c3ccccc3)cc2c1=O | inactive: 8.81%

Molecules above with a cyano group (2):
SMILES | activity change (PNC), negative = inhibition
CC(C)(C)OC(=O)N1CC=C2C(C#N)=C(N)C(C#N)(C#N)[C@H](c3cccnc3)[C@H]2C1 | inconclusive: -36.8%
Cc1ccc(N(CCC#N)C(=O)CCl)cc1C | inconclusive: -50.8%

Reprinted at random: three records from the list
SMILES | activity change (PNC), negative = inhibition
S=c1[nH]nc(Cc2cccc3ccccc23)o1 | inconclusive: -66.2%
O=C(O)CSc1nc(-c2ccc(Cl)cc2)nc2c1oc1ccccc12 | active: -86.9%
CC1CCN(CCCn2c(=S)[nH]c3ccccc3c2=O)CC1 | inconclusive: -32.6%

Next compounds

SMILES | activity change (PNC), negative = inhibition
COC(=O)Cc1nnc(NC(=O)c2ccccc2)s1 | active: -94.7%
CCC(=O)NC(=S)N1CCN(c2ccc([N+](=O)[O-])cc2Cl)CC1 | inactive: -2.98%
N#CCCn1cc(C(=O)Nc2ccccc2Br)c(-c2cccs2)n1 | inconclusive: -66.1%
O=C(Nc1ccc(S(=O)(=O)N2CCCCC2)cc1)C1CCCN(C(=O)c2ccc(Cl)cc2)C1 (configuration not stated) | inactive: 193%
CC(NC(=O)Nc1ccc(F)cc1F)c1ccncc1 (configuration not stated) | inconclusive: -35.5%
COC(=O)c1sccc1NC(=O)C1C2C=CC(O2)C1C(=O)O (configuration not stated) | inconclusive: -45.3%
COC(=O)c1c(NC(=O)c2ccccc2N(C)S(=O)(=O)c2ccccc2)sc2c1CCCC2 | active: -108%
O=C(CCc1nc2ccccc2c(=O)[nH]1)OCC(=O)c1cccc(Cl)c1 | inactive: 9.28%
COc1cc(C2C(C#N)=C(N)OC3=C2C(=O)CCC3)c([N+](=O)[O-])cc1OC (configuration not stated) | inconclusive: -37.2%
NC(=O)CSC1=Nc2ccccc2C2=NC(CC(=O)NCc3cccs3)C(=O)N12 (configuration not stated) | inconclusive: -46.8%
CCOc1ccc(NCc2nnc(SCc3ccccc3Cl)n2-c2ccccc2)cc1 | inactive: -17.1%
CC(=O)Nc1sc2c(c1C(c1ccccc1)N1CCOCC1)CCCC2 (configuration not stated) | inconclusive: -46.4%
CC1CCCN(CCOCCSc2ccccc2)C1 (configuration not stated) | inconclusive: -52.5%
O=[N+]([O-])c1ccc(NNC(=S)Nc2ccc(F)cc2)cc1 | inconclusive: -39.3%
COc1cc(OC)cc(C(=O)N/N=C/c2ccc(OC)c(COc3ccc(F)cc3)c2)c1 | inconclusive: -71.8%
COC(=O)c1cc(Cl)c(NC(=O)c2cc3ccccc3o2)cc1OC | inactive: 31.6%
Cc1cccc(NC(=S)N2CCOCC2)c1C | inactive: -27.8%
COc1ccc(OC)c(NC(=O)CSc2nnc(CNC(=O)COc3ccc(Cl)cc3)o2)c1 | inconclusive: -53.5%
COC(=O)c1cc2nc(-c3ccccc3)cc(C(F)(F)F)n2n1 | inconclusive: -36.2%
N#Cc1ccc(Oc2nc(Nc3ccc(F)cc3)nc(N3CCCC3)n2)cc1 | inconclusive: -31.5%
Cc1ccccc1-c1noc(CCC(=O)NCC2CCCO2)n1 (configuration not stated) | inactive: 2.54%
O=C(Nc1ccon1)c1cc2ccccc2oc1=O | inconclusive: -46.1%
Cc1ccc(-c2cc(-c3ccccc3Cl)c(C#N)c(N)n2)o1 | inconclusive: -52.2%

SMILES | activity change (PNC), negative = inhibition
COc1ccc(-c2nc(C#N)c(N3CCN(c4ccccc4)CC3)o2)cc1 | inconclusive: -62.9%
O=C(c1cnn(-c2ccccc2)c1)c1ccccc1O | inactive: -28.9%
Cc1cc(C)c(S(C)(=O)=O)c(S(=O)c2ccc(Cl)cc2)n1 (configuration not stated) | inconclusive: -45.3%
O=C1CC(Sc2ncccn2)C(=O)N1c1ccccc1C(F)(F)F (configuration not stated) | inactive: 26.1%
COc1ccc(C2C(=O)N(C3CCCCC3)CC(=O)N2CC2COc3ccccc3O2)cc1 (configuration not stated) | inactive: 19.7%
CCS(=O)(=O)N1CCC(C(=O)c2ccc(Cl)cc2)CC1 | inactive: -10.5%
COc1ccc(-c2cnn3c(N)c(S(=O)(=O)c4ccccc4)cnc23)cc1 | inactive: 12.6%
CCc1cc(/C(Cc2ccc3ccccc3n2)=N\O)c(O)cc1O | inactive: -14.1%
O=S(=O)(c1ccccc1)N(C1=NCCS1)S(=O)(=O)c1ccccc1 | inconclusive: -33.6%
Clc1ccc2nc3ccccn3c2c1 | inconclusive: -31%
COC(=O)C1=C(CSCc2ccco2)NC(=O)NC1c1cc(C)ccc1C (configuration not stated) | inactive: 9.27%
COc1cc2nc(SCC(=O)NCCc3ccccc3)n(Cc3ccco3)c(=O)c2cc1OC | inactive: 35.8%
Oc1ccccc1-c1cc(-c2ccccc2Cl)[nH]n1 | inactive: -22.9%
CCC(CC)C(=O)Nc1cccc(C(=O)NCc2ccco2)c1 | active: -115%
Cn1c(CNc2ccccn2)c(C#N)c2ccccc21 | inconclusive: -58.7%
Cc1cccc(NC(=O)c2nc(-c3ccccc3)n(-c3ccccc3)n2)c1C | inactive: 15.7%
Cn1c(SCC2CCCCC2)nnc1-c1ccncc1 | inactive: 39.1%
COc1ccc(CNC(=O)C2CCN(S(=O)(=O)c3cc(OC)ccc3OC)CC2)cc1 | inactive: -11%
CC(C)NC(=O)c1ccc(COCC(F)(F)C(F)F)cc1 | inactive: -4.57%
Cc1nn(-c2nc3ccccc3s2)c(N)c1Sc1ccc(F)cc1 | inconclusive: -44.6%
C=CCSc1nnc(-c2ccccc2N=Cc2c(C)[nH]n(-c3ccccc3)c2=O)c(=O)[nH]1 | inconclusive: -32.8%
Cc1cc(N2CCCC2)ccc1/C=N/n1cnnc1 | inactive: 9.69%
C=CCn1c(O)c(N=NC(=O)c2ccccc2NS(=O)(=O)c2cccs2)c2ccccc21 | inactive: 5.11%
